Source: PMC3628344

Sequences of proteins named here, by UniProt entry; tags and fusion partners are left off.
UniProt Q9Y2J4: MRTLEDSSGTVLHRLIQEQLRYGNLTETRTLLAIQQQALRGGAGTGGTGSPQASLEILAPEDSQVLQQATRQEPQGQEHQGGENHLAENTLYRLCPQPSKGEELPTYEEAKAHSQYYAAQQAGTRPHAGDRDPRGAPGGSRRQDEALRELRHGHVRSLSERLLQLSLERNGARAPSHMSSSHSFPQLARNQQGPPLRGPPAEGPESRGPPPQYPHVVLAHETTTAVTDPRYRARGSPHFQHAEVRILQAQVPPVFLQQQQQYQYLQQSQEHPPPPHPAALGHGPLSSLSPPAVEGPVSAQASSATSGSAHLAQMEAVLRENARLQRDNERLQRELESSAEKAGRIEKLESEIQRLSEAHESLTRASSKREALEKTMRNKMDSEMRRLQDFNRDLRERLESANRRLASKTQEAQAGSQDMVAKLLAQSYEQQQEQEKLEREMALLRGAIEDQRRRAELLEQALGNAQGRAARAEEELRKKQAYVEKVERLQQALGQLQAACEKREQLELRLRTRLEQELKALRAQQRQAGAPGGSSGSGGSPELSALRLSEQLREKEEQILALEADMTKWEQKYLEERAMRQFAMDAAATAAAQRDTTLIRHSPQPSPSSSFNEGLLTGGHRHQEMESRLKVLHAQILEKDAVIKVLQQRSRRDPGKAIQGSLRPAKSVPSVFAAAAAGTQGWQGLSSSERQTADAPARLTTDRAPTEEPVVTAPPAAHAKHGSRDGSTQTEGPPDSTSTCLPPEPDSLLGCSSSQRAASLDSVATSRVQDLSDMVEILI

B1: AMOTL1 (endogenous, SF268 cells) (protein, UniProt Q8IY63 1-956)
chain: MWRAKLRRGTCEPAVKGSPSACYSPSSPVQVLEDSTYFSPDFQLYSGRHETSALTVEATSSIREKVVEDPLCNFHSPNFLRISEVEMRGSEDAAAGTVLQRLIQEQLRYGTPTENMNLLAIQHQATGSAGPAHPTNNFSSTENLTQEDPQMVYQSARQEPQGQEHQVDNTVMEKQVRSTQPQQNNEELPTYEEAKAQSQFFRGQQQQQQQQGAVGHGYYMAGGTSQKSRTEGRPTVNRANSGQAHKDEALKELKQGHVRSLSERIMQLSLERNGAKQHLPGSGNGKGFKVGGGPSPAQPAGKVLDPRGPPPEYPFKTKQMMSPVSKTQEHGLFYGDQHPGMLHEMVKPYPAPQPVRTDVAVLRYQPPPEYGVTSRPCQLPFPSTMQQHSPMSSQTSSASGPLHSVSLPLPLPMALGAPQPPPAASPSQQLGPDAFAIVERAQQMVEILTEENRVLHQELQGYYDNADKLHKFEKELQRISEAYESLVKSTTKRESLDKAMRNKLEGEIRRLHDFNRDLRDRLETANRQLSSREYEGHEDKAAEGHYASQNKEFLKEKEKLEMELAAVRTASEDHRRHIEILDQALSNAQARVIKLEEELREKQAYVEKVEKLQQALTQLQSACEKREQMERRLRTWLERELDALRTQQKHGNGQPANMPEYNAPALLELVREKEERILALEADMTKWEQKYLEESTIRHFAMNAAATAAAERDTTIINHSRNGSYGESSLEAHIWQEEEEVVQANRRCQDMEYTIKNLHAKIIEKDAMIKVLQQRSRKDAGKTDSSSLRPARSVPSIAAATGTHSRQTSLTSSQLAEEKKEEKTWKGSIGLLLGKEHHEHASAPLLPPPPTSALSSIASTTAASSAHAKTGSKDSSTQTDKSAELFWPSMASLPSRGRLSTTPAHSPVLKHPAAKGTAEKLENSPGHGKSPDHRGRVSSLLHKPEFPDGEMMEVLI

Target: YAP (endogenous, SF268 cells) (human (endogenous in SF268)) (UniProt P46937)
Test: affinity purification with mass spectrometry; IP of endogenous YAP from SF268 lysate (RIPA buffer); prominent bands cut from a Coomassie-stained gel, LC-MS

| Molecule | binding |
| --- | --- |
| AMOTL2 (endogenous, SF268 cells) (from UniProt Q9Y2J4 1-779) | binds |
| B1 | binds |

No constants are given. Whether binding was seen depends on the method and setting. Binding seen in cells or lysates may run through a third protein. A yes stands for co-enrichment or nearness to the bait. Other partners may have been found.
